# Measured values taken from paper PMC7862772.
# These are yes or no findings as the source states them, for the method shown. Binding can be weak; no strength is given. Where a sequence is shown, tags or fusion partners need not be part of it. For part of these data: In cells and extracts the contact can be indirect.
# T1: recombinant E. tenella eIF-5A, GST-tagged (rEteIF-5A) (Eimeria tenella) (UniProt U6KT65)
# T1 sequence: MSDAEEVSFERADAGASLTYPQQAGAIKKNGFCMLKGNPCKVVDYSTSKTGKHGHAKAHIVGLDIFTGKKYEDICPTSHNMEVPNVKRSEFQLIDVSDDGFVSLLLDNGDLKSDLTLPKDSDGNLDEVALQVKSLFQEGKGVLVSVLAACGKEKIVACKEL
# B1: EteIF-5A fused to the VN155 fragment (pBiFC-VN155-EteIF-5A) (protein, UniProt U6KT65 1-161)
# chain: T1 sequence
# B2: recombinant E. tenella eIF-5A, GST-tagged (rEteIF-5A) (protein, UniProt U6KT65 1-161)
# chain: T1 sequence
# Assays:
# [1] = biological target: T1, recombinant E. tenella eIF-5A, GST-tagged (rEteIF-5A) (Eimeria tenella); experiment: pull-down; GST pull-down (Pierce GST Protein Interaction Pull-Down Kit): 150 ug GST-tagged rEteIF-5A (or GST-tag) immobilised on glutathione agarose, 150 ug rEtCDPK4 incubated at 4°C overnight, eluted; western blot with anti-rEteIF-5A and anti-rEtCDPK4 rabbit sera; both purified
# [2] = biological target: EtCDPK4 fused to the VC155 fragment (pBiFC-VC155-EtCDPK4) (Eimeria tenella); experiment: split reporter; BiFC in 293T cells co-transfected with pBiFC-VN155 and pBiFC-VC155 fusion plasmids (FuGENE HD), 37°C, fluorescence microscopy 48 h after transfection
# [3] = biological target: recombinant E. tenella CDPK4, His-tagged (His-rEtCDPK4) (Eimeria tenella); experiment: co-IP; 50 ug rabbit anti-rEtCDPK4 IgG on A/G resin, 50 ug rEteIF-5A and 50 ug rEtCDPK4 incubated together with the resin at 4°C overnight; eluted; western blot with anti-rEtCDPK4 and anti-rEteIF-5A polyclonal antibodies; negative control resin of the kit; both purified
molecule,measurement,setting,value
"recombinant E. tenella CDPK4, His-tagged (His-rEtCDPK4) (Eimeria tenella)",binding,[1],binds
B1,binding,[2],binds
B2,binding,[3],binds
